About 760 (0.19%) of roughly 390,000 compounds were called active. Inconclusive means that the source gave no clear call. Such entries were picked first, then a sample of the others. Calls come from the whole dose curve; as a rule, active = well fitted inhibition curve with a large enough effect; inconclusive = small, poorly fitted or top-dose-only effect; inactive = flat fitted curve, though single readings scatter. Potencies beside an inconclusive call are fits to weak or partial responses and may not hold up.
Experiment: qHTS for Inhibitors of Vif-A3F Interactions: qHTS; note: nearly all actives have a fitted effect of over 65% in size; for activity, negative = active: % of control where 0% means no effect
Conditions: HeLa A3F-eYFP + Vif (tagged APOBEC3F with the HIV-1 protein that degrades it), YFP fluorescence increase; series mostly up to 46.1 µM; activity, negative = active: at the top concentration
Summary of the method: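 HeLa cells stably expressing A3F-eYFP plus Vif, plated and incubated overnight at 37 deg C, then exposed to compounds overnight at 37 deg C. Blocked degradation read as raised yellow fluorescence (Ex 488/Em 500-530).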
Potency is the fitted concentration of half-maximal effect.

SMILES | activity, negative = active | Potency
Cc1cc(NC(=O)CSc2nnc(C3COc4ccccc4O3)o2)no1 (centres undefined) | inactive: -3.38% | 
CCCC/C=C1/CCC(CN(C)C)C1=O (centres undefined) |  | inconclusive: 3.55 µM [inhibitor, single point]
O=C(c1ccccc1)N1CCN(CCc2ccccn2)CC1 |  | inactive
COc1ccc(NC(=O)COc2cccc(C(F)(F)F)c2)cn1 |  | inconclusive: 28.2 µM [inhibitor, single point]
CCN1CCN(Cc2ccc(NC(=O)c3ccc(C)c(/C=C/c4cnc(Nc5cc(N6CCNCC6)nc(C)n5)cn4)c3)cc2C(F)(F)F)CC1 |  | active: 31.6 µM
CCc1ccc(CNC(=O)C2CCCN(c3nnc(C)c4c(C)n(-c5ccccc5)nc34)C2)cc1 (centres undefined) |  | inactive
Cc1ccc2cc3c(N)c4c(C)ccc(C)c4nc3nc2c1 |  | inconclusive: 7.08 µM [inhibitor, partial curve, poor fit]
Cc1cc(NC(=O)CSc2nnc(-c3ccccc3)o2)no1 |  | inconclusive: 22.4 µM [inhibitor, single point]
COc1ccccc1NC(=O)C1=C(C)Nc2nc(SC)nn2C1c1ccccc1Cl (centres undefined) | inactive: -1.56% | 
O[C@H]1C[C@H](c2ccc(Cl)cc2)N(Cc2cccs2)C[C@@H]1n1cc(-c2ccc(F)cc2)nn1 | inactive: -0.0743% | 
CN1CCN(CC(=O)Nc2c(C(=O)c3ccccc3)oc3ccccc23)CC1 | inactive: -14.2% | 
O=C(c1cnc(N2CCN(c3ncccn3)CC2)c2ccccc12)N1CCN(c2ncccn2)CC1 | inactive: -0.809% | 
CC(C)OP(=O)(OC(C)C)C(Nc1ccc([N+](=O)[O-])cc1)c1cccc([N+](=O)[O-])c1 (centres undefined) | inactive: 3.55% | 
Cc1ccc2nc(Nc3ccc(C)c(Cl)c3)c3nncn3c2c1 |  | inconclusive: 35.5 µM [inhibitor, single point]
COCCCNc1nc2ccccc2nc1NS(=O)(=O)c1ccc(C)cc1 |  | inconclusive: 35.5 µM [inhibitor, single point]
Cc1cc(C)cc(NC(=O)Nc2ccc(N3CCCCC3)cc2)c1 |  | inconclusive: 11.2 µM [inhibitor, partial curve, poor fit]
NC(=S)NN=C1CCSCC1 |  | inconclusive: 22.4 µM [inhibitor, partial curve, poor fit]
c1ccc(CN2CCC(N=C3NN=C(c4ccc5c(c4)OCCO5)CS3)CC2)cc1 |  | inconclusive: 14.1 µM [inhibitor, single point]
C/C(=N\NC(=S)Nc1ccccc1C)c1ccc(O)cc1 |  | inconclusive: 3.55 µM [inhibitor, full curve, poor fit]
COC(=O)C(CCSC)Nc1ncnc2onc(-c3ccc(F)cc3)c12 (centres undefined) |  | inconclusive: 15.8 µM [inhibitor, partial curve, poor fit]
COc1ccc(C(=O)C2CCCN(C(=O)c3n[nH]c4c3CCCC4)C2)cc1OC (centres undefined) |  | inconclusive: 3.16 µM [inhibitor, single point]
COc1ccc(CNC(=O)C2Cc3ccccc3CN2C(=O)c2ccco2)cc1 (centres undefined) |  | inconclusive: 2.51 µM [inhibitor, full curve, poor fit]
CCn1c(=S)sc2c(=O)n(CC(=O)Nc3cc(OC)ccc3OC)c(C)nc21 |  | inconclusive: 2.82 µM [inhibitor, single point]

SMILES | activity, negative = active | Potency
COc1ccccc1-c1cc(C(=O)Nc2cccnc2Cl)no1 | inactive: 0.35% | 
CCN1CCN(C(c2cccc(OC)c2)c2sc3nc(C)nn3c2O)CC1 (centres undefined) | inactive: 3.43% | 
CCC1=C/C(=C/c2sc3ccccc3[n+]2CC)CC(C)(C)C1 |  | inconclusive: 35.5 µM [inhibitor, single point]
CCN(CC)c1nc2cc(OC)ccc2cc1C#N |  | inconclusive: 11.2 µM [inhibitor, partial curve]
CCCOc1ccc(N2C(=O)CC(N(CCC)C(=O)CCC(=O)O)C2=O)cc1 (centres undefined) | inactive: -11.7% | 
CC[C@]12c3[nH]c4ccc(Cl)cc4c3CCN1C(=O)[C@@H](CC(=O)NCc1ccco1)C[C@@H]2C(=O)N1CCN(C(=O)c2ccco2)CC1 | inactive: 1.17% | 
Cc1[nH]n(-c2ccccc2)c(=O)c1CCO |  | inconclusive: 3.16 µM [inhibitor, single point]
NC(N)=NC(=S)Nc1ccc(Cl)cc1 |  | inconclusive: 17.8 µM [inhibitor, single point]
COC(=O)c1cc2sc(Cl)cc2n1CC(=O)Nc1cccc(SC)c1 |  | inconclusive: 35.5 µM [inhibitor, single point]
Cc1c(N(C)S(=O)(=O)c2ccc(Cl)c(C(=O)N3CCC(C(N)=O)CC3)c2)c(=O)n(-c2ccccc2)n1C |  | inconclusive: 2.82 µM [inhibitor, full curve]
CC(C)C(=O)NC(c1ccco1)c1c(O)ccc2ccccc12 (centres undefined) | inactive: -17.4% | 
Cc1cc(N)c(-n2cc3c(=O)n(C)c(=O)n(C)c3c2)cc1C |  | inconclusive: 15.8 µM [inhibitor, single point]
CCc1ccc(C2C(C#N)=C(N)Oc3cc(N)ccc32)cc1 (centres undefined) |  | inconclusive: 35.5 µM [inhibitor, partial curve, poor fit]
COc1ccc(C(C[N+](=O)[O-])c2c(-c3ccccc3)cc3ccccn23)cc1 (centres undefined) |  | inconclusive: 28.2 µM [inhibitor, single point]
CCCCCN(C(=O)CN1CCC(Cc2ccccc2)CC1)c1c(N)n(CCCC)c(=O)[nH]c1=O |  | inconclusive: 35.5 µM [inhibitor, partial curve, poor fit]
COc1cccc(C(C(=O)NC2CCCCC2)N(C(=O)c2ccco2)c2ccc(-n3cnnn3)c(C)c2)c1 (centres undefined) | inactive: -0.909% | 
Cc1cccc(NC(=S)NCCc2ccccc2)n1 |  | inconclusive: 6.31 µM [inhibitor, partial curve, poor fit]
O=C(NCCc1ccc(F)cc1)C(=O)NCC1CCCN1S(=O)(=O)c1ccccc1 (centres undefined) | inactive: -7.31% | 
O=C1c2cccc3c([N+](=O)[O-])ccc(c23)C(=O)N1CCc1ccccn1 |  | inconclusive: 7.08 µM [inhibitor, partial curve, poor fit]
O=C(Nc1ccc(F)cc1)/C(=C1/CCCCCN1)[N+](=O)[O-] |  | inconclusive: 35.5 µM [inhibitor, single point]
C/C(=N\NC(=O)c1ccc(O)cc1)c1cccc(NC(=O)c2ccccc2C)c1 | inactive: 7.43% | 
COc1ccc(/C=N/NC(=O)Nc2cccc3nsnc23)cc1OC |  | inconclusive: 35.5 µM [inhibitor, single point]
COc1ccc2c(c1)c1nc3ccccc3nc1n2Cc1ccc(OC(C)C)c(OC)c1 |  | active: 22.4 µM

SMILES | activity, negative = active | Potency
Cc1ccc2cc(C3CC(c4ccco4)=NN3S(C)(=O)=O)c(Cl)nc2c1 (centres undefined) |  | inconclusive: 22.4 µM [inhibitor, single point]
COC(=O)c1ccc(CSC(=N)N)o1 |  | inconclusive: 35.5 µM [inhibitor, single point]
CC1(C)CC(=O)C2=C(C1)OC(N)=C(C#N)[C@@H]2c1ccccc1[N+](=O)[O-] |  | inconclusive: 35.5 µM [inhibitor, single point]
CCOC(=O)c1c(NC(=O)c2cc(=O)c3cc(C)ccc3o2)sc2c1CCCC2 | inactive: -0.656% | 
Fc1ccc(CN2CCCCCC2)c(F)c1 | inactive: 6.28% | 
CCC(C)Sc1cc(-c2nc3cc(C)ccn3c2NC2CCCCC2)ccc1OC (centres undefined) |  | inconclusive: 35.5 µM [inhibitor, single point]
O=C(CN1C(=O)NC2(CCc3ccccc32)C1=O)NCc1ccccc1Cl (centres undefined) |  | inconclusive: 1.41 µM [inhibitor, partial curve, poor fit]
COC1=C(OC)C(=O)C(Sc2ccc3ccccc3c2)=CC1=O |  | active: 25.1 µM
Cc1ccc(Nc2ccccc2N)cc1 |  | inconclusive: 20 µM [inhibitor, single point]
CN(CC(=O)Nc1ccc(C#N)cc1)Cc1ccc(Cl)cc1 | inactive: 0.683% | 
CCCCc1ccc(NC(=S)NCc2ccc(OC)cc2)cc1 |  | inconclusive: 35.5 µM [inhibitor, single point]
COc1ccc(/C=N/NC(=O)Nc2cccc3nsnc23)cc1 |  | inconclusive: 35.5 µM [inhibitor, single point]
Cc1cc(/C=C2\SC(=S)N(Cc3ccco3)C2=O)c(C)n1-c1cccnc1 |  | active: 11.2 µM
O=C(C[C@H]1C/C=C\CC[C@@H](Cc2ccc(F)cc2)C(=O)O[C@@H](c2ccccc2)CNC1=O)N[C@H](CO)Cc1ccccc1 |  | inconclusive: 35.5 µM [inhibitor, single point]
CSc1ccccc1NC(=O)CCS(=O)(=O)c1nc(-c2ccc3c(c2)OCO3)cc(C(F)(F)F)n1 | inactive: 4.53% | 
O=C(c1cccc(NS(=O)(=O)c2ccccc2)c1)N1CCN(c2ccccc2)CC1 |  | inconclusive: 35.5 µM [inhibitor, single point]
COc1ccccc1N1CCN(C(=O)CN2C(=O)COc3ccc(S(=O)(=O)N4CCOCC4)cc32)CC1 | inactive: 10.4% | 
CCOC(=O)Cn1nc(C)c(NC(=O)c2ccc(Cl)c([N+](=O)[O-])c2)c1C |  | inconclusive: 5.62 µM [inhibitor, single point]
O=C(O)c1ccccc1Sc1c([N+](=O)[O-])cc(C(F)(F)F)cc1[N+](=O)[O-] |  | inconclusive: 35.5 µM [inhibitor, single point]
CC1=CC(C)(C)NC(=S)N1c1ccc(Cl)cc1 |  | inconclusive: 22.4 µM [inhibitor, partial curve, poor fit]
COC(=O)CSc1n[nH]c(=S)s1 | inactive: 24.5% | 
Oc1c(C(Nc2ccccn2)c2ccccc2F)ccc2cccnc12 (centres undefined) |  | inconclusive: 35.5 µM [inhibitor, partial curve, poor fit]
CCc1cccc(OCCn2nc(C(=O)O)c3ccccc3c2=O)c1 |  | inconclusive: 3.55 µM [inhibitor, full curve, poor fit]

3 structures out of the list, arranged by molecular weight, high to low:
SMILES | activity, negative = active | Potency
CSc1ccccc1NC(=O)CCS(=O)(=O)c1nc(-c2ccc3c(c2)OCO3)cc(C(F)(F)F)n1 | inactive: 4.53% | 
CCCCCN(C(=O)CN1CCC(Cc2ccccc2)CC1)c1c(N)n(CCCC)c(=O)[nH]c1=O |  | inconclusive: 35.5 µM [inhibitor, partial curve, poor fit]
C/C(=N\NC(=O)c1ccc(O)cc1)c1cccc(NC(=O)c2ccccc2C)c1 | inactive: 7.43% | 

From PubChem BioAssay AID602313 (National Center for Advancing Translational Sciences (NCATS), 2012)
